# According to paper PMC8215385, “Design of a Proteolytically Stable Sodium-Calcium Exchanger 1 Activator Peptide for In Vivo Studies” (Frontiers in Pharmacology, 2021):
# Chains of the proteins cited; added tags and fusions are not shown. Residues count along the entry.
# UniProt O08589, residues 21-92: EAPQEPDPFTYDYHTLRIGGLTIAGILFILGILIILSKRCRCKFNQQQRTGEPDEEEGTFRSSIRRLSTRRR
# These are yes or no findings as the source states them, for the method shown. Binding seen in cells or lysates may run through a third protein. Some results given as binding are weak or reduced against the parent protein; the word gives no strength.
# What was measured:
# biotin-ahx-mini-OPT = target: T1, biotin-ahx-mini-OPT; experiment: pull-down; biotinylated peptide (8 uM) on monoclonal anti-biotin beads, incubated with rat left ventricle lysate 2 h at 4°C; immunoblot with PLM antibodies; only the target purified
# T1 sequence (peptide, biotin at the N-terminus with ahx-linker): PYKEIEQLIELANYQV
# NOPT-biotin = target: T2, NOPT-biotin; experiment: as above
# T2 sequence (peptide, N-methyl-proline (NMP) at position 1; biotin at the C-terminus): PYKEIEQLIELANYQV
substance,measurement,setting,value
endogenous phospholemman (PLM) (from UniProt O08589 21-92),binding,biotin-ahx-mini-OPT,binds
same,binding,NOPT-biotin,binds
